According to US20220081389A1, “AMIDE COMPOUNDS AND PREPARATION METHOD THEREFOR AND USE THEREOF” (CAC NANTONG CHEMICAL CO., LTD., priority 2019, published 2022):
Some results were stated once for a whole list of compounds, not compound by compound.

How the values were obtained:
Assay type in all cases: in vivo
[1] = system: Chilo suppressalis; assay: Insecticidal activity test against Chilo suppressalis (rice stem dip); settings: 3rd day after treatment
Procedure: (§1) Various kinds of pests were tested with the compounds of this invention. Unless otherwise specified, the preparation method of samples and definition of the mortality rate of the insects in the embodiments and this invention are as follows: the preparation method of samples is to weigh 10 mg of the compound and dissolve it in 1 mL DMF to prepare 10,000 ppm mother liquid, which is diluted to necessary concentration by 0.05% Tween-80 water, respectively. The mortality rate is the mortality rate of pests under the test concentration, whose calculating formula is: mortality rate (%)=Number of dead pests/total pests*100
The rice was cultivated in a plastic pot with a diameter of 9 cm and a height of 10 cm. When the rice grew to 25 cm, the aerial part of robust and consistent rice seedlings was selectively cut. Their leaves were removed and their stems of about 8 cm were kept for use. Pour the solution prepared with compound of this invention into the Petri dish (about 40 mL) and dip the rice stems into the solution for 10 seconds. Take rice stems out and dry them in a cool environment. Put a wet cotton ball at the bottom of finger-like glass tube and 5 rice stems in each tube. Put 10 of 3rd-instar larvae of Chilo suppressa into each tube, which was repeated by 3 times. Seal the tubes with black cotton cloth and tighten them with rubber band. The tubes were placed in a illumination incubator at 28° C. and incubated in the dark (incubated without light). The dead number of Chilo suppressalis was investigated 3 days after treatment. The mortality was calculated.

[2] = system: Aphis craccivora; assay: Insecticidal activity test against Aphis craccivora (broad bean leaf dip); settings: 40 ppm, 3rd day after treatment
Procedure: as §1
Cut a single leaf of broad bean with stem and insert it into a glass jar filled with water (capacity of 20 ml). Five adult Aphis craccivoras were seeded onto each leaf, and covered with plastic cups with holes. The adult aphids were removed after 24 hours. Before the experiment, the base number was investigated and the single leaf with more than 15 nymphs aphids was selected for the experiment. Dip leaf of broad bean with nymphs aphids into the solution of test compound 10s, take out and dry them in a cool environment, 3 parallel repeats. Place the glass jars on the shelf of observation room and covered with plastic cups with holes. 20-25° C. with 14 hL: 10 hD illumination. The number of Aphis craccivora death and alive was investigated on the 3rd day after treatment, and the mortality was calculated.

[3] = system: Spodoptera litura; assay: Insecticidal activity test against Spodoptera litura (leaf dip, cabbage leaf discs); settings: 0.4 ppm, 3rd day after treatment
Procedure: as §1
The leaf dip method was used to assay the insecticidal activity. Healthy and pesticide-untreated cabbage leaves was selected to prepare 1 cm of leaf discs by diameter. Dip the leaf discs into the solution prepared with compound of this invention for 10 seconds and dry them in a cool […] environment. Then place them in 24-well plate with 3 discs per pore. Put 10 of Spodoptera litura into each pore, which was repeated by 3 times. The 24-well plate was placed in an illumination incubator and incubated with 14 hL: 10 hD illumination at 25° C. The dead number of Spodoptera litura was investigated on the 3rd day after treatment, and the mortality was calculated.

[4] = system: Spodoptera frugiperda; assay: Insecticidal activity test against Spodoptera frugiperda (leaf dip, maize seedlings); settings: 1 ppm, 3rd day after treatment
Procedure: as §1
(§2) The leaf dip method was used to assay the insecticidal activity. Cut above ground part of fresh maize seedlings (about 10 cm). Dip the maize seedlings into the solution prepared with compound of this invention for 10 seconds and dry them in a cool environment. Then cut the dry maize seedlings into 3-5 cm leaf sections and put 3 leaf sections into each petri dish. Put ten of 3th-instar larvae of Spodoptera frugiperda into each dish, which was repeated by 3 times. Then the dishes were placed in an illumination incubator and incubated with 14 hL: 10 hD illumination at 25° C. Symptoms were investigated on the 1st, 2nd and 3rd day after treatment, and the mortality was calculated.

[5] = system: Mythimna separata; assay: Insecticidal activity test against Mythimna separata (leaf dip, maize seedlings); settings: 3rd day after treatment
Procedure: as §1
as §2, with “Mythimna separatas” for “Spodoptera frugiperda”

`N#Cc1ccc(C(=O)N(CC2CC2)c2cccc(C(=O)Nc3c(Br)cc(C(F)(C(F)(F)F)C(F)(F)F)cc3OC(F)F)c2F)cc1` [Compound 14] was tested, and the “insecticidal activity (mortality of Chilo suppressalis)” value ([1]; 1 ppm) was at least 90%, the “insecticidal activity (mortality of Aphis craccivora)” value [2] was at least 90% and the “insecticidal activity (mortality of Spodoptera litura)” value [3] was at least 90%. The “insecticidal activity (mortality of Spodoptera frugiperda)” value [4] was at least 90%.

With `CC(C)(C)c1ccc(C(=O)N(CC2CC2)c2cccc(C(=O)Nc3c(Br)cc(C(F)(C(F)(F)F)C(F)(F)F)cc3OC(F)F)c2F)cc1` [Compound 55] the “insecticidal activity (mortality of Mythimna separate)” value ([5]; 1 ppm) was at least 90%.

For `O=C(Nc1c(Br)cc(C(F)(C(F)(F)F)C(F)(F)F)cc1OC(F)F)c1cccc(N(CC2CC2)C(=O)c2ccc(F)cc2F)c1F` [Compound 77], the “insecticidal activity (mortality of Spodoptera litura)” value [3] was at least 90% and the “insecticidal activity (mortality of Spodoptera frugiperda)” value [4] was at least 90%.

`O=C(Nc1c(Br)cc(C(F)(C(F)(F)F)C(F)(F)F)cc1OC(F)F)c1cccc(N(CC2CC2)C(=O)c2c(F)cccc2F)c1F` [Compound 81] was tested, and the “insecticidal activity (mortality of Spodoptera frugiperda)” value [4] was at least 90%.

`O=C(Nc1c(Br)cc(C(F)(C(F)(F)F)C(F)(F)F)cc1OC(F)F)c1cccc(N(CC2CC2)C(=O)c2ccc(F)c(F)c2)c1F` [Compound 83] was tested, and the “insecticidal activity (mortality of Aphis craccivora)” value [2] was at least 90%, the “insecticidal activity (mortality of Spodoptera litura)” value [3] was at least 90% and the “insecticidal activity (mortality of Spodoptera frugiperda)” value [4] was at least 90%.

`O=C(Nc1c(Br)cc(C(F)(C(F)(F)F)C(F)(F)F)cc1OC(F)F)c1cccc(N(CC2CC2)C(=O)c2cc(F)cc(F)c2)c1F` [Compound 85] was tested, and the “insecticidal activity (mortality of Chilo suppressalis)” value ([1]; 1 ppm) was at least 90%, the “insecticidal activity (mortality of Spodoptera litura)” value [3] was at least 90% and the “insecticidal activity (mortality of Spodoptera frugiperda)” value [4] was at least 90%.

With `O=C(Nc1c(Br)cc(C(F)(C(F)(F)F)C(F)(F)F)cc1C(F)(F)F)c1cccc(N(CC2CC2)C(=O)c2ccncc2)c1F` [Compound 101] the “insecticidal activity (mortality of Aphis craccivora)” value [2] was at least 90%.

`O=C(Nc1c(Br)cc(C(F)(C(F)(F)F)C(F)(F)F)cc1C(F)(F)F)c1cccc(N(CC2CC2)C(=O)c2ccc(Cl)nc2)c1F` [Compound 105] was tested, and the “insecticidal activity (mortality of Mythimna separate)” value ([5]; 0.1 ppm) was at least 90% and the “insecticidal activity (mortality of Spodoptera frugiperda)” value [4] was at least 90%.

For `O=C(Nc1c(Br)cc(C(F)(C(F)(F)F)C(F)(F)F)cc1C(F)(F)F)c1cccc(N(CC2CC2)C(=O)c2ccnc(Cl)c2)c1F` [Compound 110], the “insecticidal activity (mortality of Mythimna separate)” value ([5]; 0.1 ppm) was at least 90%, the “insecticidal activity (mortality of Chilo suppressalis)” value ([1]; 2 ppm) was at least 90% and the “insecticidal activity (mortality of Aphis craccivora)” value [2] was at least 90%.

For `O=C(Nc1c(Br)cc(C(F)(C(F)(F)F)C(F)(F)F)cc1C(F)(F)F)c1cccc(N(CC2CC2)C(=O)c2ccnc(F)c2)c1F` [Compound 111], the “insecticidal activity (mortality of Mythimna separate)” value ([5]; 0.04 ppm) was at least 90%, the “insecticidal activity (mortality of Aphis craccivora)” value [2] was at least 90% and the “insecticidal activity (mortality of Spodoptera frugiperda)” value [4] was at least 90%.

With `O=C(Nc1c(Br)cc(C(F)(C(F)(F)F)C(F)(F)F)cc1OC(F)F)c1cccc(N(CC2CC2)C(=O)c2ccncc2)c1F` [Compound 113] the “insecticidal activity (mortality of Aphis craccivora)” value [2] was at least 90%.

`O=C(Nc1c(Br)cc(C(F)(C(F)(F)F)C(F)(F)F)cc1OC(F)F)c1cccc(N(CC2CC2)C(=O)c2ccc(Cl)nc2)c1F` [Compound 117] was tested, and the “insecticidal activity (mortality of Mythimna separate)” value ([5]; 0.1 ppm) was at least 90%.

`O=C(Nc1c(Br)cc(C(F)(C(F)(F)F)C(F)(F)F)cc1OC(F)F)c1cccc(N(CC2CC2)C(=O)c2ccnc(Cl)c2)c1F` [Compound 119] was tested, and the “insecticidal activity (mortality of Chilo suppressalis)” value ([1]; 1 ppm) was at least 90%, the “insecticidal activity (mortality of Spodoptera litura)” value [3] was at least 90% and the “insecticidal activity (mortality of Spodoptera frugiperda)” value [4] was at least 90%.

`O=C(Nc1c(Br)cc(C(F)(C(F)(F)F)C(F)(F)F)cc1OC(F)F)c1cccc(N(CC2CC2)C(=O)c2ccnc(F)c2)c1F` [Compound 120] was tested, and the “insecticidal activity (mortality of Mythimna separate)” value ([5]; 0.04 ppm) was at least 90%, the “insecticidal activity (mortality of Aphis craccivora)” value [2] was at least 90% and the “insecticidal activity (mortality of Spodoptera litura)” value [3] was at least 90%. The “insecticidal activity (mortality of Spodoptera frugiperda)” value [4] was at least 90%.

In the case of `O=C(Nc1c(Br)cc(C(F)(C(F)(F)F)C(F)(F)F)cc1OC(F)F)c1cccc(N(CC2CC2)C(=O)c2ccc(C(F)(F)F)cn2)c1F` [Compound 144], the “insecticidal activity (mortality of Mythimna separate)” value ([5]; 1 ppm) is reported as at least 90%.

In the case of `O=C(Nc1c(Br)cc(C(F)(C(F)(F)F)C(F)(F)F)cc1OC(F)F)c1cccc(N(CC2CC2)C(=O)c2ccc(F)cn2)c1F` [Compound 145], the “insecticidal activity (mortality of Mythimna separate)” value ([5]; 1 ppm) is reported as at least 90%.

In the case of `O=C(Nc1c(Br)cc(C(F)(C(F)(F)F)C(F)(F)F)cc1OC(F)F)c1cccc(N(CC2CC2)C(=O)c2ccc(Cl)cn2)c1F` [Compound 146], the “insecticidal activity (mortality of Mythimna separate)” value ([5]; 1 ppm) is reported as at least 90%.

For `O=C(Nc1c(Br)cc(C(F)(C(F)(F)F)C(F)(F)F)cc1OC(F)F)c1cccc(N(CC2CC2)C(=O)c2ccc(Br)cn2)c1F` [Compound 147], the “insecticidal activity (mortality of Mythimna separate)” value ([5]; 1 ppm) was at least 90%.

For `O=C(Nc1c(Br)cc(C(F)(C(F)(F)F)C(F)(F)F)cc1OC(F)F)c1cccc(N(CC2CC2)C(=O)c2ccc([N+](=O)[O-])cn2)c1F` [Compound 148], the “insecticidal activity (mortality of Mythimna separate)” value ([5]; 1 ppm) was at least 90%.

For `N#Cc1ccc(C(=O)N(CC2CC2)c2cccc(C(=O)Nc3c(Br)cc(C(F)(C(F)(F)F)C(F)(F)F)cc3OC(F)F)c2F)nc1` [Compound 149], the “insecticidal activity (mortality of Mythimna separate)” value ([5]; 1 ppm) was at least 90%.

With `O=C(Nc1c(Br)cc(C(F)(C(F)(F)F)C(F)(F)F)cc1C(F)(F)F)c1cccc(N(CC2CC2)C(=O)c2ccc(C(F)(F)F)cn2)c1F` [Compound 150] the “insecticidal activity (mortality of Mythimna separate)” value ([5]; 1 ppm) was at least 90%.

`O=C(Nc1c(Br)cc(C(F)(C(F)(F)F)C(F)(F)F)cc1C(F)(F)F)c1cccc(N(CC2CC2)C(=O)c2ccc(Cl)cn2)c1F` [Compound 152] was tested, and the “insecticidal activity (mortality of Mythimna separate)” value ([5]; 1 ppm) was at least 90%.

For `O=C(Nc1c(Br)cc(C(F)(C(F)(F)F)C(F)(F)F)cc1C(F)(F)F)c1cccc(N(CC2CC2)C(=O)c2ccc(Br)cn2)c1F` [Compound 153], the “insecticidal activity (mortality of Mythimna separate)” value ([5]; 1 ppm) was at least 90%.

With `O=C(Nc1c(Br)cc(C(F)(C(F)(F)F)C(F)(F)F)cc1C(F)(F)F)c1cccc(N(CC2CC2)C(=O)c2ccc([N+](=O)[O-])cn2)c1F` [Compound 154] the “insecticidal activity (mortality of Mythimna separate)” value ([5]; 1 ppm) was at least 90%.

With `O=C(Nc1c(Br)cc(C(F)(C(F)(F)F)C(F)(F)F)cc1OC(F)F)c1cccc(N(CC2CC2)C(=O)c2ncccc2Cl)c1F` [Compound 173] the “insecticidal activity (mortality of Mythimna separate)” value ([5]; 1 ppm) was at least 90%.

In the case of `O=C(Nc1c(Br)cc(C(F)(C(F)(F)F)C(F)(F)F)cc1C(F)(F)F)c1cccc(N(CC2CC2)C(=O)c2ncccc2Cl)c1F` [Compound 174], the “insecticidal activity (mortality of Mythimna separate)” value ([5]; 1 ppm) is reported as at least 90%.

`O=C(Nc1c(Br)cc(C(F)(C(F)(F)F)C(F)(F)F)cc1C(F)(F)F)c1cccc(N(CC2CC2)C(=O)c2ncc(Cl)cc2Cl)c1F` [Compound 175] was tested, and the “insecticidal activity (mortality of Mythimna separate)” value ([5]; 1 ppm) was at least 90%.

`O=C(Nc1c(Br)cc(C(F)(C(F)(F)F)C(F)(F)F)cc1OC(F)F)c1cccc(N(CC2CC2)C(=O)c2ncc(Cl)cc2Cl)c1F` [Compound 176] was tested, and the “insecticidal activity (mortality of Mythimna separate)” value ([5]; 1 ppm) was at least 90%.

With `CS(=O)(=O)c1ccc(C(=O)N(CC2CC2)c2cccc(C(=O)Nc3c(Br)cc(C(F)(C(F)(F)F)C(F)(F)F)cc3OC(F)F)c2F)nc1` [Compound 177] the “insecticidal activity (mortality of Mythimna separate)” value ([5]; 1 ppm) was at least 90%.

For `O=C(Nc1c(Br)cc(C(F)(C(F)(F)F)C(F)(F)F)cc1OC(F)F)c1cccc(N(CC2CC2)C(=O)c2cccc(F)n2)c1F` [Compound 178], the “insecticidal activity (mortality of Mythimna separate)” value ([5]; 1 ppm) was at least 90%.

In the case of `O=C(Nc1c(Br)cc(C(F)(C(F)(F)F)C(F)(F)F)cc1C(F)(F)F)c1cccc(N(CC2CC2)C(=O)c2cccc(F)n2)c1F` [Compound 179], the “insecticidal activity (mortality of Mythimna separate)” value ([5]; 1 ppm) is reported as at least 90%.

`N#Cc1ccc(C(=O)N(CC2CC2)c2cccc(C(=O)Nc3c(Br)cc(C(F)(C(F)(F)F)C(F)(F)F)cc3OC(F)F)c2F)c(F)c1` [Compound 181] was tested, and the “insecticidal activity (mortality of Spodoptera frugiperda)” value [4] was at least 90%.
